Data on 20 sequences can be found in publication PMC9911399, “Two distinct binding modes provide the RNA-binding protein RbFox with extraordinary sequence specificity”.

Data set [1] addresses T1, RBFOX1 RRM (Homo sapiens) (UniProt Q9NWB1).
T1 sequence (looked up, limits assumed): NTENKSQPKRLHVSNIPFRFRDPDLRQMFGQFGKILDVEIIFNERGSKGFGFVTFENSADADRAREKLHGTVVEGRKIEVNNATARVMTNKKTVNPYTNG
Description: SPR. To be noted: purified recombinant protein; variant of UGCAUGU; cited from earlier work.

Data set [2] addresses T2, RbFoxmut (RRM with four substitutions) (UniProt Q9NWB1).
T2 sequence: T1 sequence (looked up, limits assumed)
Description: NMR HSQC titration. To be noted: slow exchange, affinity better than uM, NMR: 10 mM sodium phosphate pH 6.0, 30 mM NaCl, 298 K (RNA spectra), recombinant protein, protein details: His-tag (HisTrap).

For data set [3], the target named is T3, RBFOX1 RRM RbFoxmut (Fox-RRM*) R118D,E147R,N151S,E152T (Homo sapiens) (UniProt Q9NWB1).
T3 sequence (looked up): T1 sequence (looked up, limits assumed) with R10D, E39R, N43S, E44T
Description: NMR. The note with it: 10 mM sodium phosphate pH 6.0, 30 mM NaCl, 298 K; purified recombinant protein; residues 109-208; variant of UGCAUGU.

For data set [4], the target named is T4, RbFox RRM (wt) (UniProt Q9NWB1).
T4 sequence (looked up): T1 sequence (looked up, limits assumed)
In words: competition EMSA. To be noted: 32P-labeled UGCAUGU displaced, EMSA: 10 mM Tris pH 7.5, 150 mM NaCl, 3.4 mM EDTA, 0.001% NP-40, 30 C, 10 min, 1 nM RNA, 8% native PAGE, recombinant protein, residues 109-208; for binding result: value only in Fig 1f.

Data set [5] addresses T4, RbFox RRM (wt). In words: NMR HSQC titration and solution structure. To be noted: intermediate exchange, new structure, PDB id not in material; NMR: 10 mM sodium phosphate pH 6.0, 30 mM NaCl, 298 K (RNA spectra); recombinant protein; residues 109-208; label: unlabeled.
The target in data set [6] is T4, RbFox RRM (wt). In words: EMSA. To be noted: binding barely detectable, estimated lower limit; EMSA: 10 mM Tris pH 7.5, 150 mM NaCl, 3.4 mM EDTA, 0.001% NP-40, 30 C, 10 min, 1 nM RNA, 8% native PAGE; recombinant protein; residues 109-208; label: 5' 32P (EMSA), unlabeled (NMR).
Data set [7] addresses T4, RbFox RRM (wt). Description: NMR HSQC titration. The note with it: intermediate exchange, binds more weakly than RNA1; NMR: 10 mM sodium phosphate pH 6.0, 30 mM NaCl, 298 K (RNA spectra); recombinant protein; residues 109-208; label: unlabeled.

Residue numbers refer to the chain shown, from its start. For part of these data: The comparison behind a weaker result is the experiment's own reference, which may not be listed here. For part of these data: Tags and fusion partners may be left off the protein sequences shown. For part of these data: The exact form of at least one protein or probe is not confirmed. For part of these data: At least one verdict was read from the data and is not stated in words by the source. For part of these data: Whether high values mean tight binding is not given here for every scale. A value given as a limit tells only on which side of the number the result lay.

Regarding UGCAUGC, the binding signal (ln(KA relative to UGCAUGU)) in data set [1] is -0.273.

In the case of UGAAUCU, the binding result in data set [2] (label: unlabeled) and in data set [3] was “binds” in each case. Take UACAUGU: the binding result with RbFox RRM (wt) [4] was “binds more weakly”. Take GGGUUGU: in data set [1], the binding signal (ln(KA relative to UGCAUGU)) was -5.91. As to UGCAAGU, in the data set with RbFox RRM (wt) [4] (label: unlabeled competitor), the binding result is listed as “binds more weakly”.

On to GGAAUGU, for which, in data set [1], the binding signal (ln(KA relative to UGCAUGU)) was -4.08.

As for UGCAUGG, the binding signal (ln(KA relative to UGCAUGU)) in data set [1] is 0.201. On to UGCACGU, for which, in data set [1], the binding signal (ln(KA relative to UGCAUGU)) is -2.42.

For UGCAUGA, in data set [1], the binding signal (ln(KA relative to UGCAUGU)) was 0.687.

Turning to AGCAUGU, in data set [1], the binding signal (ln(KA relative to UGCAUGU)) is -1.86.

As for UGCCUGU, the binding signal (ln(KA relative to UGCAUGU)) in data set [1] was -3.79. As to UGCAUAU [RNA1 UGCAUAU], in the data set with RbFox RRM (wt) [5], the binding result was “binds more weakly”. Moreover, the binding signal (ln(KA,rel) vs UGCAUGU) with RbFox RRM (wt) [4] (HiTS-Eq value -4.4678, label: …) is -7.01.

As for CGCAUGU, in data set [1], the binding signal (ln(KA relative to UGCAUGU)) is -1.28.

As to GGCAUGU, in data set [1], the binding signal (ln(KA relative to UGCAUGU)) was -1.81. Consider UGCGUGU, for which the binding result with RbFox RRM (wt) [4] (label: unlabeled competitor) is “binds more weakly”. For CGGUUGU, the binding signal (ln(KA relative to UGCAUGU)) in data set [1] was -5.77.

For UGAAUGU, in the data set with RbFox RRM (wt) [6], the half-maximal binding was over 17 µM. Also, the binding result in data set [2] (label: 5' 32P (EMSA), unlabeled (NMR)) was “binds”; in data set [3], “binds”. For UGCUUGU, in data set [1], the binding signal (ln(KA relative to UGCAUGU)) was -4.26. With UUCAUGU [RNA2 UUCAUGU], in the data set with RbFox RRM (wt) [7], the binding result is “binds more weakly”.

On to GGCUUGU, for which the binding signal (ln(KA relative to UGCAUGU)) in data set [1] is -6.14.
